Measurements from “University of Dundee, Small-Polar-MMV Screening Library” (2021), ChEMBL document CHEMBL3988442.

Protein sequences, listed by entry. Tags and fused reporters are not part of them.
UniProt I6X8D2, whole entry: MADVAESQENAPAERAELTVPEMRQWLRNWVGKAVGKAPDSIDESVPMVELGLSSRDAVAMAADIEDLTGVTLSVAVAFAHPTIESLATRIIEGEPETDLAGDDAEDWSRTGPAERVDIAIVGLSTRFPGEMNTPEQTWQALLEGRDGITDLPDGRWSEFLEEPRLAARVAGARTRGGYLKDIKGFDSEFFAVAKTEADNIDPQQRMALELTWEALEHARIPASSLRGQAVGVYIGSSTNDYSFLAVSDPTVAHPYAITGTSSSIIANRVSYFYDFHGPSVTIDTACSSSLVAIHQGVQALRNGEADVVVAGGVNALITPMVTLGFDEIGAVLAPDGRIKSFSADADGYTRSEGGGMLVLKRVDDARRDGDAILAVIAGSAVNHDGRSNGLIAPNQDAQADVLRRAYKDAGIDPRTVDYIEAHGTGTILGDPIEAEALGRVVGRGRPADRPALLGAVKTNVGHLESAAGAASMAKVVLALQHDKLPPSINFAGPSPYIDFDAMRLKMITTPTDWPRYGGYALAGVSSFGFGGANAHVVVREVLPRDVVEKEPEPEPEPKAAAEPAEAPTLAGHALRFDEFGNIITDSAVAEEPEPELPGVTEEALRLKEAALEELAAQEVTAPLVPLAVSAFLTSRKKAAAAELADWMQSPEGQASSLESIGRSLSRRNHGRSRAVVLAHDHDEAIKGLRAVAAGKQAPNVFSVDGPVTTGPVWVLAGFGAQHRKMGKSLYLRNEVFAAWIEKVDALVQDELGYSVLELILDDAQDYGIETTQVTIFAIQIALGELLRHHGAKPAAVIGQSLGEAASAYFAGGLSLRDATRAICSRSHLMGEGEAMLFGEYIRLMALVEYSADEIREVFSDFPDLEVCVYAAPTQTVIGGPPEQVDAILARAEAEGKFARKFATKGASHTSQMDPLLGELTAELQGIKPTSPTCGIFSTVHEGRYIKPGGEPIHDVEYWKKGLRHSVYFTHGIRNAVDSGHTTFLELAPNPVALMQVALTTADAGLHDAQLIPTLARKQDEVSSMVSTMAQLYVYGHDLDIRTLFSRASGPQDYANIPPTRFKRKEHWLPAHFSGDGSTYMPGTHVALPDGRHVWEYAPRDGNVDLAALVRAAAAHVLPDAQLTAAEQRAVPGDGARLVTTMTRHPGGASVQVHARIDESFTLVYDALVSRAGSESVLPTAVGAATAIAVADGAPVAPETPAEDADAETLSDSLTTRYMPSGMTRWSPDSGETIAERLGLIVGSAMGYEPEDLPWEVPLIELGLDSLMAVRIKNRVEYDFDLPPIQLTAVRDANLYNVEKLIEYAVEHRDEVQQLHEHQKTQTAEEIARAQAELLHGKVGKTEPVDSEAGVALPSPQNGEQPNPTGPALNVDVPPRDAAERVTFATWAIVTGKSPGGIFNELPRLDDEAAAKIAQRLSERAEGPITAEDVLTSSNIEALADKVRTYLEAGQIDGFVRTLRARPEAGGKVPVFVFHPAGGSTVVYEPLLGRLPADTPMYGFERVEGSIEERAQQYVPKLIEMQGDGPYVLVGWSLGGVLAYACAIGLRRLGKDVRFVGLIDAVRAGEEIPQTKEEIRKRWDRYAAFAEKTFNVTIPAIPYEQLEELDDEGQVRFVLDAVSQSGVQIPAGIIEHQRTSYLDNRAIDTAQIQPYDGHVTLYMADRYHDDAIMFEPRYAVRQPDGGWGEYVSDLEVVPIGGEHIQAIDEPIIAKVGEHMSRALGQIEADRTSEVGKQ
UniProt P9WNZ1, whole entry: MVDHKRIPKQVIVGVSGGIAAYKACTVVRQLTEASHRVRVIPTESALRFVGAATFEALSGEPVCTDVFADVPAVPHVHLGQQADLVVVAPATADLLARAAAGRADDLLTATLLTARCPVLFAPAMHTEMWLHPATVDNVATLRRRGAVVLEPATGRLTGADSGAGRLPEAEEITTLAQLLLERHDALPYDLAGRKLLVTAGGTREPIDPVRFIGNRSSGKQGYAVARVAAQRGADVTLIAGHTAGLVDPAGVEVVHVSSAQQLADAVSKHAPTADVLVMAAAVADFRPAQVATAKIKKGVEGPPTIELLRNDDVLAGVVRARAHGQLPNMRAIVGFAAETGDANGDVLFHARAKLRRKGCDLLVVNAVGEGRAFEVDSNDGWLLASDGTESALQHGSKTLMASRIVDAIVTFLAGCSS
UniProt P9WPC5, whole entry: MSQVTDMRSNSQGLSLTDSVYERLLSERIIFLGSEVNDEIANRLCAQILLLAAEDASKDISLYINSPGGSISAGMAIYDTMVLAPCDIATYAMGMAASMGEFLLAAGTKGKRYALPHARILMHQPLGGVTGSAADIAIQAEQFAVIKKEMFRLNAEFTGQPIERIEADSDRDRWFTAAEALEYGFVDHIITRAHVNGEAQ
UniProt P9WPC3, whole entry partner: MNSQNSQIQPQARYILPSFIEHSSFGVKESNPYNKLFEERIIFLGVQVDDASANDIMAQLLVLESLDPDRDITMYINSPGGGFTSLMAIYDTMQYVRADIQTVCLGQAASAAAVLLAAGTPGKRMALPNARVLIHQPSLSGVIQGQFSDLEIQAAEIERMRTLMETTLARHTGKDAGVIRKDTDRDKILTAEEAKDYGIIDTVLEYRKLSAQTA
UniProt P9WFT3, whole entry: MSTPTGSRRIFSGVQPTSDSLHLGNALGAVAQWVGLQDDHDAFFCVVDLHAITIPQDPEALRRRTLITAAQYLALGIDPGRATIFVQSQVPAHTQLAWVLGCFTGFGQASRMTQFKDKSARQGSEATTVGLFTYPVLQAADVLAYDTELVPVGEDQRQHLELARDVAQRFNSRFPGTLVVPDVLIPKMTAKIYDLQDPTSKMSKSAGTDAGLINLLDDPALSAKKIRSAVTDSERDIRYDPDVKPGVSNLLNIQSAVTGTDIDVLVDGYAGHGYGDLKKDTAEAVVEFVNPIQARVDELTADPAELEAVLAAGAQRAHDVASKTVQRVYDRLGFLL

Pks13 thioesterase: 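Enzyme assay of the thioesterase domain of polyketide synthase 13; the read-out is not stated. Target: Polyketide synthase Pks13, Mycobacterium tuberculosis (UniProt I6X8D2). Concentration: 30 µM. Higher reads as stronger inhibition (inferred from which compounds were picked for retests). About 67,000 compounds were tested under these conditions; 0.46% (about 300) showed 50% or more at least once.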
Toxoplasma: 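Assay of Toxoplasma gondii numbers, read through their beta-galactosidase reporter with a colour substrate. Tested at 10 µM. The record gives no direction; the compounds picked for IC50 retests had high values, so higher reads as fewer parasites. About 67,000 compounds were tested under these conditions; 0.38% (about 260) showed 50% or more at least once.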
CoaBC: 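Coenzyme A biosynthesis protein CoaBC, Mycobacterium tuberculosis (UniProt P9WNZ1). Enzyme assay of CoaBC with a phosphate dye (Biomol Green) read at 650 nm. Tested at 30 µM. Higher reads as stronger inhibition, judged from the few compounds that gave an IC50. Most strong results did not repeat in a second test. About 67,000 compounds were tested under these conditions; 0.06% (about 40) showed 50% or more at least once.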
ClpP1P2: 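Protease assay of ClpP1P2, read by the AMC dye that it sets free. Target: ClpP1P2, Mycobacterium tuberculosis (UniProt P9WPC5 and UniProt P9WPC3). Tested at 50 µM. Higher reads as stronger inhibition, judged from the few compounds that gave an IC50. Most other retested compounds had strongly negative values. Of about 69,000 compounds tested this way, about 10 (0.015%) reached 50% or more in at least one test.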
Leishmania in macrophages: 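Cell assay of Leishmania donovani living inside macrophages; the read-out is not stated. Tested at 30 µM. Higher reads as stronger inhibition (inferred: compounds with an IC50 in retests scored well above the rest). Size under these conditions: about 69,000 compounds, about 1,000 of them at 50% or above in at least one test.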
MtTrpRS: 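Enzyme assay of tryptophanyl-tRNA synthetase; the read-out is not stated. Target: Tryptophan-tRNA ligase, Mycobacterium tuberculosis (UniProt P9WFT3). Tested at 10 µM. Higher most likely means stronger inhibition; the record gives no direction and few retests gave an IC50. About 65,000 compounds were tested under these conditions; 0.098% (about 64) showed 50% or more at least once.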

Results are given as percent effect. How 0% and 100% were set is not recorded. Most values in the screen are low, and negative values occur. The compounds are a random part of those screened. Two or more numbers in one place are separate tests of the same structure; such repeats can differ widely. A dash means the value is not listed here; it may have been measured.

| # | structure | Pks13 thioesterase | Toxoplasma | CoaBC | ClpP1P2 | Leishmania in macrophages | MtTrpRS |
|---|---|---|---|---|---|---|---|
| 1 | `O=C(NC[C@]1(O)CCN(Cc2ccsc2)C[C@H]1O)c1c[nH]cn1` | -0.08011 | -12.66 | 5.251 | -17.58 | -19.95 | -10.81 |
| 2 | `CCOCC1CN(Cc2cccc(C#N)c2)Cc2nccn2C1.O=C(O)C(F)(F)F` (stereo unspecified) | - | 19.87 | - | - | 1.918 | - |
| 3 | `COCc1c(Br)cccc1NC(=O)CC(F)(F)F` | - | 0.3895 | -1.597 | -0.8779 | -44.16 | -1.888 |
| 4 | `CN1C(=O)CO[C@H](c2ccc(NC(=O)NC(C)(C)C)cc2)[C@H]1CO` | 9.268 | -2.502 | -1.987 | -4.637 | 12.26 | -0.9863 |
| 5 | `O=C(N1CCCC1)N1CCO[C@H]2[C@@H](Oc3ccccn3)CC[C@@H]21` | -15.28 | - | -8.549 | -1.226 | - | -1.762 |
| 6 | `Cn1c(=O)oc2cc(S(=O)(=O)N3CCC(c4ccccc4)C3)c(Cl)cc21` (stereo unspecified) | -53.34 | 22.29 | 3.353 | 16.81 | -2.45 | -0.2154 |
| 7 | `Cc1cccc(C(=O)N2C[C@@H]3[C@H](CC(=O)NC(C)C)[C@@H]3C2)n1` | -16.85 | - | 5.344 | -3.456 | - | -2.668 |
| 8 | `Cc1csc(CNC(=O)N(C)Cc2nnc3n2CCC3)n1` | -5.678 | -4.532 | 3.512 | 8.318 | 12.43 | -0.5202 |
| 9 | `Cn1cc(NC(=O)Cc2ccccc2Br)cc1C(N)=O` | -10.55 | 10.44 | 1.401 | -5.347 | -13.83 | -0.7157 |
| 10 | `CCC(NC(=O)CN(C)Cc1ccc(C)o1)c1ccc(C)cc1` (stereo unspecified) | -4.649 | 11.02 | 7.937 | 15.99 | 12.06 | -2.187 |
| 11 | `CN1CC(=O)N(c2ccccc2)CC12CCN(CC1CC1)C2` (stereo unspecified) | -3.595 | - | 4.505 | -14.84 | - | 0.2876 |
| 12 | `O=C(NC1COC2(CCN(Cc3cccs3)CC2)C1)c1ccccn1.O=C(O)C(F)(F)F` (stereo unspecified) | - | 5.079 | - | - | 19.46 & 15.3 | - |
| 13 | `O=C(O)C(F)(F)F.[H][C@]12CCC[C@@]1(COCc1ccccn1)CN(C(=O)c1ccc(F)cc1)C2` | - | -0.6993 | - | - | 14.5 | - |
| 14 | `CNc1cc(CNC(=O)c2ccccc2OC)nc(-c2ccncc2)n1` | 8.956 | 1.58 | 0.4854 | 3.543 | 44.91 & 14.7 | - |
| 15 | `CC(=O)NC(C)C1=CCCN(Cc2ccc(C(=O)O)cc2)C1` (stereo unspecified) | -16.26 | 23.57 | 1.22 | -21.52 | 22.92 | -1.505 |
| 16 | `CCN(Cc1ccc2c(c1)OCO2)c1ncc(S(N)(=O)=O)s1` | -6.533 | 2.326 | 2.331 | -0.4989 | 30.3 | 0.08223 |
| 17 | `C=C(C)CN(CC)S(=O)(=O)c1ccccc1C#N` | 4.05 | 5.015 | 1.297 | 5.599 | -5.094 | -8.247 |
| 18 | `CCOC1CCC2(CCN(C(=O)c3csnn3)CC2)c2ccccc21` (stereo unspecified) | -58.81 | 16.88 | -0.1212 | 13.52 | 22.17 | - |
| 19 | `O=C(O)C(F)(F)F.O=C(O)C(F)(F)F.[H][C@@]12CN(CCOC)C[C@]1([H])[C@@H](OC)CCN2Cc1ccco1` | - | 0.6657 | - | - | 5.523 | - |
| 20 | `NC(=O)CC1CCN(C(=O)NCC2(c3ccccc3F)CC2)CC1` | - | -1.872 | 10.81 | -1.02 | 21.04 | 3.838 |
| 21 | `CC(=O)c1csc(-c2csc(Cn3ccc(=O)[nH]c3=O)n2)c1` | -26.91 | 4.23 | -1.138 | 1.027 | 6.125 | -0.3666 |
| 22 | `Cc1csc(N2CCN(C(=O)CCc3ccccn3)CC2)n1` | -5.921 | 10.17 | 5.813 | 7.032 | 25.51 | 0.8607 |
| 23 | `Cc1noc(C)c1CN1CC2(CCN(C(=O)c3c[nH]cn3)C2)CC1=O` (stereo unspecified) | -4.025 | 1.923 | 4.695 | 4.96 | -10.11 | -6.821 |
| 24 | `Cn1nc(CC(C)(C)C)cc1NC(=O)c1ccc2[nH]nnc2c1` | - | 1.298 | -1.707 | 8.838 | -19.76 | 11.88 |
| 25 | `O=C(c1nc2c(s1)CCCN2C(=O)C1CC1)N1CCCC1` | -159.2 | 10.52 | 11.21 | -1.111 | 1.775 & 6.276 | 0.2114 |
| 26 | `Cc1cccc(S(=O)(=O)N2C[C@@H]3C[C@@H](c4nc(C)no4)O[C@@H]3C2)c1` | 6.834 | - | 2.303 | -8.365 | - | - |
| 27 | `CCc1cnc2c(c1Nc1ccc3c(c1)OCO3)c(=O)n(C)c(=O)n2C` | 2.901 | 3.726 | 3.249 | 5.116 | -0.4441 | 3.228 |
| 28 | `CCN1CCCC(CN(C)c2nccc(-c3ccc(C)nc3C)n2)C1` (stereo unspecified) | 4.429 | -0.8167 | 2.02 | -6.508 | 24.54 | 5.161 |
| 29 | `CC1CN(C)CCN1C(=O)c1cnc2c(cnn2C2CCCC2)c1` (stereo unspecified) | -5.176 | -26.53 | 16.89 | -10.1 | 32.26 | -5.54 |
| 30 | `COc1ccc(C(=O)N2CCCC2c2noc(C(C)C)n2)nn1` (stereo unspecified) | -17.8 | 6.379 | 6.102 | -34.01 | -6.555 | -1.742 |
| 31 | `CSc1ccc(CNc2n[nH]c(C)n2)cc1` | -7.817 | 23.55 | 6.311 | 31.2 | -47.04 | -10.37 |
| 32 | `O=C(CNC(=O)c1ccccc1I)NCc1ccccc1F` | -20.82 | 8.028 | 12.02 | -8.631 | -2.143 | 0.07128 |
| 33 | `CN(C)C(=O)COC[C@@]12CCC[C@@H]1CN(C1CCC1)C2` | -18.22 | - | - | -4.453 | - | -1.26 |
| 34 | `O=C(O)CN1CCC(F)(F)C2(CCN(c3ccccn3)C2)C1` (stereo unspecified) | - | - | -9.583 | 13.7 | - | 5.007 |
| 35 | `Cn1cc(CN2CCCC23CCN(C(=O)c2ccsc2)CC3)cn1` | -3.968 | - | 4.622 | 0.3327 | - | -0.8718 |
| 36 | `Cc1cc(CN(C)CC2CCCN(CCc3ccc(Cl)cc3)C2)[nH]n1` (stereo unspecified) | -18.55 | 2.419 | 2.036 | -12.25 | 96.09 & 87.23 | 2.288 |
| 37 | `CC(C)OCCC(=O)Nc1cccc(N2CCN(CC3CC3)CC2)c1` | -13.08 | 8.494 | -2.564 | -2.377 | 17.85 | -3.97 |
| 38 | `Cc1ncc2c(n1)CN(Cc1nnc(-c3occc3C)o1)CC2` | 13.07 | 4.954 | 7.757 | -7.55 | 14.34 | -2.43 |
| 39 | `CCc1ccc(CN2CCc3ncnc(N4CCOCC4)c3CC2)o1` | -7.009 | - | -0.2114 | -8.596 | - | 1.057 |
| 40 | `Cc1nccn1CC1CCCN(Cc2ccc(-c3cccnc3)cc2)C1` (stereo unspecified) | -40.53 | 7.751 | -14.46 | -2.152 | 28.17 | -2.998 |
| 41 | `[H][C@@]12CN(C(=O)N(C)C)C[C@]1([H])C(=O)N(Cc1cccc(F)c1)C2` | - | 0.4841 | - | - | -61.27 | - |
| 42 | `COCCn1ccnc1CN(Cc1ccccn1)Cc1sccc1C` | -28.52 | 4.909 | 2.828 | -7.753 | 60.02 | -3.153 |
| 43 | `Cc1noc(C)c1CN1CCC(N(C)Cc2noc(C(C)C)n2)C1` (stereo unspecified) | -16.35 | 7.721 | -3.789 | -5.067 | -11.25 | -1.864 |
| 44 | `COc1ccc2oc(-c3cn(C)nc3C)c(O)c(=O)c2c1` | 8.199 | -2.621 | -4.439 | -14.28 | 15.35 | -2.3 |
| 45 | `Cc1cc(N2CCN(C(=O)CCc3scnc3C)CC2)cc(C)n1` | -14.52 | 10.03 | 2.805 | -6.961 | 31.96 | -2.649 |
| 46 | `O=C(O)C(F)(F)F.O=C(c1ccoc1)N1CCC2(CCC(=O)N2Cc2ccncc2)CC1` | - | 3.213 | - | - | 24.99 & 9.591 | - |
| 47 | `CCc1ccsc1C(=O)NC(Cc1ccccc1)C(N)=O` (stereo unspecified) | -39.47 | -0.2528 | 3.846 | 0.7396 | 24.88 | -3.792 |
| 48 | `CCO[C@H]1CC[C@H]2[C@H]1OCCN2C(=O)CC1=CCCCC1` | -43.09 | - | -4.242 | -4.267 | - | - |
| 49 | `CCc1nnsc1C(=O)NCCn1nc2ccccn2c1=O` | -13.24 | 12.39 | -2.361 | 3.383 | 18.78 | -0.2916 |
| 50 | `CN1CCN(C2CCN(CCOc3ccc(C#N)cc3)CC2)C1=O` | -18.24 | 10.6 | 5.548 | -7.289 | 34.8 | -3.018 |
| 51 | `CCN(CC)C(=O)C1CCC2(CCNCC2)O1` (stereo unspecified) | -26.06 | - | -0.9662 | -4.037 | - | -4.182 |
| 52 | `c1csc(CN2CCn3c(Cn4cncn4)cnc3C2)c1` | -9.218 | - | 2.5 | 12.32 | - | 10.16 |

The first 5 entries again:

- O=C(NC[C@]1(O)CCN(Cc2ccsc2)C[C@H]1O)c1c[nH]cn1 : Pks13 thioesterase: -0.08011%; Toxoplasma: -12.66%; CoaBC: 5.251%; ClpP1P2: -17.58%; Leishmania in macrophages: -19.95%; MtTrpRS: -10.81%
- CCOCC1CN(Cc2cccc(C#N)c2)Cc2nccn2C1.O=C(O)C(F)(F)F (stereo unspecified) : Toxoplasma: 19.87%; Leishmania in macrophages: 1.918%
- COCc1c(Br)cccc1NC(=O)CC(F)(F)F : Toxoplasma: 0.3895%; CoaBC: -1.597%; ClpP1P2: -0.8779%; Leishmania in macrophages: -44.16%; MtTrpRS: -1.888%
- CN1C(=O)CO[C@H](c2ccc(NC(=O)NC(C)(C)C)cc2)[C@H]1CO : Pks13 thioesterase: 9.268%; Toxoplasma: -2.502%; CoaBC: -1.987%; ClpP1P2: -4.637%; Leishmania in macrophages: 12.26%; MtTrpRS: -0.9863%
- O=C(N1CCCC1)N1CCO[C@H]2[C@@H](Oc3ccccn3)CC[C@@H]21 : Pks13 thioesterase: -15.28%; CoaBC: -8.549%; ClpP1P2: -1.226%; MtTrpRS: -1.762%